Test results published in US20220227887A1 (ONO PHARMACEUTICAL, published 2022).

Experiments:
Test in all cases: flow cytometry of DO11.10 cells expressing the mouse/human LAG3 chimera
mLAG-3 hD2 = target: mLAG-3 hD2
mLAG-3 hD4 = target: mLAG-3 hD4
mLAG-3 hD3 = target: mLAG-3 hD3

binding (mLAG-3 hD2): binds | binding (mLAG-3 hD4): binds | binding (mLAG-3 hD3): binds
B1: anti-mouse LAG3 antibody TKB58 (antibody, V domains shown)
VH: VQLQQSGAELVRPGALVKLSCKASGFNIKDYYMHWVKQRPEQGLEWIGWIDPENGNTIYDPKFQDKASLTADTSSNTAYLQLSSLTSEDTAVYYCAPERGYDYAMDYWGQGTSVTVSS
VL: IVLTQSPATLSVTPGDSVSLSCRASQSISNNLHWYQQKSHESPRLLIKYASQSISGIPSRFSGSGSGTDFTLSINSVETEDFGMYFCQQSNSWPQYTFGGGTKLEIK
notes: Full-form antibody; also called TKB58 antibody; full-form anti-mouse LAG3 antibody

Results are given in words; binding and its absence hold for the method and conditions named. Binding calls can cover weak binding; strength is not graded here.
